Values of other authors, collected in patent US20170014468A1, “METHODS OF USE FOR THERAPEUTICS TARGETING THE PATHOGEN PORPHYROMONAS GINGIVALIS” (Cortexyme, Inc., priority 2014, published 2017).
At least one structure is not confirmed: it was looked up by name or label, or the drawing left a doubt.

Protein sequences, listed by entry. Tags and fused reporters are not part of them. Residues count along the entry.
UniProt P95493, 230-736: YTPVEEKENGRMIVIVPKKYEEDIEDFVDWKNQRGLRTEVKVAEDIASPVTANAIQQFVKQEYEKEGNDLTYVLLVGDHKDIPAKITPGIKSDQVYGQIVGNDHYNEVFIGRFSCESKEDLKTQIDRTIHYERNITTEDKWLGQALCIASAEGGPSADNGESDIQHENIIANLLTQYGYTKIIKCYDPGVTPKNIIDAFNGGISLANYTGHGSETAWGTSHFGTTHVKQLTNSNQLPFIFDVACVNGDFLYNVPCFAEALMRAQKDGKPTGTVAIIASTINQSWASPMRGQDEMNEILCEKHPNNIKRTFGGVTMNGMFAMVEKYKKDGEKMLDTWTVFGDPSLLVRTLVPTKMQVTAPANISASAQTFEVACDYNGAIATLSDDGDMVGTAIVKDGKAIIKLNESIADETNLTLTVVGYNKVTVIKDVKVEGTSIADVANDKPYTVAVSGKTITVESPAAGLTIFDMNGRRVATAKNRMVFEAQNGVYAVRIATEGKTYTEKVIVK

Molecular target: RgpB (Porphyromonas gingivalis, UniProt P95493)
Conditions: cited from earlier work

For C[C@H]1c2cccc(O)c2C(=O)C2=C(O)[C@]3(O)C(=O)C(C(N)=O)=C(O)[C@@H](N(C)C)[C@@H]3[C@@H](O)[C@@H]21 [doxycycline], the IC50 (RgpB amidolytic activity, read-out: 50% inhibitory concentration) is listed as 3 µM and the manner of inhibition (RgpB) is listed as “uncompetitive and reversible”.
